# PMC3826745
# No constants are given. Whether binding was seen depends on the method and setting. In cells and extracts the contact can be indirect. Some binding calls cover weakened binding; strength is not graded here. Where a sequence is shown, tags or fusion partners need not be part of it.
# T1: N-terminally tagged Neurospora crassa eIF3k (Neurospora crassa) (UniProt Q7S2R9)
# T1 sequence: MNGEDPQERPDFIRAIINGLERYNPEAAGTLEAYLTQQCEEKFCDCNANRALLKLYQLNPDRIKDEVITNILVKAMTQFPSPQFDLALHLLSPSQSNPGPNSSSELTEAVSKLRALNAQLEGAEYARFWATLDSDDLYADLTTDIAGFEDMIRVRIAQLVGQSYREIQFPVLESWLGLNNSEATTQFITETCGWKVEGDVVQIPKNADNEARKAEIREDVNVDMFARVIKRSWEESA
# Experiments:
# [1] = target: T1, N-terminally tagged Neurospora crassa eIF3k (Neurospora crassa); test: co-IP; anti-FLAG affinity purification from N. crassa extracts, FLAG peptide elution, Coomassie gel; N-terminally tagged eIF3h in ΔeIF3h, N-terminally tagged eIF3k in ΔeIF3k, or heterokaryon with N-terminally tagged eIF3k and eIF3l (all 12 subunits present)
# [2] = target: T1, N-terminally tagged Neurospora crassa eIF3k (Neurospora crassa); test: co-IP; anti-FLAG affinity purification from N. crassa extracts, Coomassie gel; N-terminally tagged eIF3k in the ΔeIF3hk strain
binder,measurement,setting,value
"Neurospora crassa eIF3l (protein, UniProt Q7SB62 1-474) MSAFQQAQAPARAIDPDSDVEEEALVNDYKEQVQYEEDDAESTQMSLAAQTDDIQSRLAAAAQPLDYSAGLEVKFSSYDSYCSLFHFILNSEGPVDLEPPSYYWAWDVIDEFIYQFNSFSSYRARIARQGNNEEEIAMLRENPNTWGCYSVLNVLYSLIQKSQITEQLAAMKRNEDPAAVAGEYGSKNLYKMLGYFSIIGLLRVHTLLGDFSLALKTLDDIELNKKAMFARVMAAHFTTYYYVGFSYMMMRRYADAIRMFSHILVYVSRTKNFQKNAQYDSITKKNDQMYALIAICVAFQPTRLDDTIHTALREKYGDQLLKLQRGGPEALPIYEELFRTACPKFISPVPPNFDEPEANIDPIEHHLSVFMDEVKTNMFNPTIKSYLRLYTTMDLKKLAGFLEVKPEELRGWLMVNKQRTKQLRWTDGGLLEGELVNVSDLDYALQGDLIHISEAKVGRKLVDWYLRNLSRTYA",binding,[1],binds
same,binding,[2],binds
